## Results from one PubChem assay

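Fluorescent reporter signals from normal-ribosome and human-like mutant-ribosome bacteria, measured on a plate reader at 24 h.
The value is the change in activity at the top tested concentration; more negative means stronger inhibition.
Active means the normal-ribosome signal drops at least twice as much as the mutant signal without a large loss of growth; inconclusive means no clear call.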

Every entry below has the call inconclusive.
Only part of the assay is shown, chiefly results filed as inconclusive.

COc1ccc(NC(=O)CN(C)C(=O)c2cc(C3CC3)nn2-c2ccccc2)cc1 [at 50 µM (top of the series)] gave activity change -15.86. COc1ccc(S(=O)(=O)n2cccc2)cc1 [at 50 µM (top of the series)] read activity change 28.91. With Cn1c(=O)c2c(nc(N3CCOCC3)n2C/C=C/c2ccccc2)n(C)c1=O [at 50 µM (top of the series)] the assay gave activity change -6.921. CC(C)N1CC2(CC(c3ccccc3C(F)(F)F)=NO2)CN1C(=O)c1ccco1 (stereo not drawn) [at 50 µM (top of the series)] read activity change -5.471. O=C(NCc1ccc2c(c1)OCO2)C1CCC(=O)N1C1CCCCC1 (stereo not drawn) [at 50 µM (top of the series)] read activity change 26.89. COc1ccccc1-c1ccc(SCc2ccc(F)cc2)nn1 [at 50 µM (top of the series)] gave activity change -8.296.

For Cc1cc(C)cc(NC(=O)c2cccc(NC(=O)C3C4CC5OC(=O)C3C5C4)c2)c1 (stereo not drawn) [at 50 µM (top of the series)] the result was activity change -13.27. Result for COc1ccc(OCC(O)CNS(=O)(=O)c2cccc(Cl)c2)cc1 (stereo not drawn) [at 50 µM (top of the series)] was activity change -24.28. CCc1nnc(NS(=O)(=O)c2ccc(NC(=O)c3cccc4ccccc34)cc2)s1 [at 50 µM (top of the series)] read activity change -1.926. O=C(NCCc1ccc(O)cc1)c1[nH]c(C(F)(F)F)nc1-c1ccccc1 [at 50 µM (top of the series)] gave activity change -4.15. CC(CCC(=O)O)C1CC[C@@]2(C)C3C(=O)CC4C(C)(C)C(O)CC[C@]4(C)C3C(=O)C[C@]12C (stereo partly drawn) [at 50 µM (top of the series)] gave activity change -20.39. For C[C@H](CO)N1C[C@H](C)[C@@H](CN(C)C)OCCCC[C@H](C)Oc2ccc(NC(=O)Nc3cccc4ccccc34)cc2C1=O [at 50 µM (top of the series)] the result was activity change 1.153.

With CN1CCN(C(=O)C[C@H]2CC[C@H]3[C@@H](COC[C@@H](O)CN3C(=O)Nc3ccc(Cl)cc3)O2)CC1 [at 50 µM (top of the series)] the assay gave activity change -57.35. Result for Cc1nc(Sc2ccccc2)c(C#N)c(C)c1[N+](=O)[O-] [at 50 µM (top of the series)] was activity change -58.78. With CN1c2ccccc2-c2nc3ccccc3n2C1c1ccncc1 (stereo not drawn) [at 50 µM (top of the series)] the assay gave activity change 9.608. Cc1noc(C)c1NC(=O)Nc1ccc2c(c1)C(=O)N([C@H](C)CO)C[C@@H](C)[C@H](CN(C)C(=O)Nc1ccc3c(c1)OCO3)OCCCC[C@@H](C)O2 [at 50 µM (top of the series)] read activity change 16.17. Result for Cc1cc(Br)c2nc(-c3ccc(Cl)cc3)c(Cc3cccc(Cl)c3)n2c1 [at 50 µM (top of the series)] was activity change -9.096.

Some entries from above, unchanged:

Compound,tested on / at,activity change
COc1ccc(NC(=O)CN(C)C(=O)c2cc(C3CC3)nn2-c2ccccc2)cc1,at 50 µM (top of the series),-15.86
COc1ccccc1-c1ccc(SCc2ccc(F)cc2)nn1,at 50 µM (top of the series),-8.296

From PubChem BioAssay record AID1035470 (Broad Institute, 2014).